Data source: PubChem BioAssay AID1259424 (University of Nebraska Medical Center, 2018)
Assay: 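Rank knockdowns across the genome by resemblance to the KSR1 depletion profile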 (primary screen). System: human HCT116 colon cancer cells. Reagents: siRNA pool against human genes, 50 nM. Measured: 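Log2 levels of six mRNAs (branched-DNA multiplex), adjusted by two reference genes and the non-targeting median, then scored against the average KSR1 knockdown pattern as Pearson r and euclidean distance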. Reading the numbers: mean correlation with KSR1 profile: higher = expression change more like KSR1 knockdown.
This is an unselected part of about 14,000 reagents tested. 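Higher correlation or smaller distance means closer resemblance to KSR1 loss; control wells, including KSR1 knockdowns, recur on many plates.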 Further read-outs or replicates are left out here. No sequences are given here. Not given: the time to read-out.

| gene | mean correlation with KSR1 profile |
| --- | --- |
| KRT14 | 0.148 |
| ATP6V1G2 | -0.158 |
| LCP1 | 0.483 |
| ACAD10 | -0.425 |
| SCN5A | -0.422 |
| ZCCHC2 | 0.546 |
| CYP4F12 | -0.167 |
| AMH | -0.0468 |
| LINC00869 | 0.158 |
| CXCL6 | -0.302 |
| CPNE3 | 0.22 |
| GNMT | -0.0322 |
| BZW2 | 0.0837 |
| PKN3 | 0.799 |
| RPL11 | -0.144 |
| OPRL1 | 0.626 |
| PLEKHH3 | 0.577 |
| SEC23B | -0.0317 |
| LSS | 0.562 |
| DMPK | 0.163 |
| RRAGD | -0.0483 |
| TSPOAP1 | 0.633 |
| PNRC2 | -0.282 |

Copied from the list.
Value for ZCCHC2 in “mean correlation with KSR1 profile”: 0.546
LINC00869, mean correlation with KSR1 profile → 0.158
Under “mean correlation with KSR1 profile”, CPNE3 is entered as 0.22
For “mean correlation with KSR1 profile”, CXCL6 shows -0.302
For “mean correlation with KSR1 profile”, DMPK shows 0.163
LCP1, mean correlation with KSR1 profile → 0.483

More reagents follow:
| gene | mean correlation with KSR1 profile |
| --- | --- |
| YWHAH | 0.221 |
| DNAI1 | -0.362 |
| ASTN2 | -0.342 |
| TSPAN2 | -0.204 |
| SP100 | 0.222 |
| AKAP11 | 0.344 |
| DAB2 | -0.613 |
| CCL3 | 0.137 |
| E2F1 | -0.271 |
| TYMP | -0.887 |
| DLG2 | -0.511 |
| DDX21 | -0.184 |
| SRBD1 | -0.592 |
| KCNA7 | -0.45 |
| RBMX | -0.47 |
| UPK3A | 0.364 |
| NME7 | -0.179 |
| UPF2 | -0.583 |
| ADH1A | 0.0787 |
| STRADB | 0.218 |
| KCNQ5 | -0.1 |
| FGF5 | -0.184 |
| CEACAM3 | 0.243 |
| POU2F3 | -0.766 |
| CD83 | -0.0391 |
| MGAT4B | 0.202 |
| MCM6 | 0.456 |
| FGD1 | 0.0674 |
| MARCHF4 | -0.612 |
| TRPC6 | -0.313 |
| H3C7 | 0.0811 |
| MYO18B | 0.432 |
| SERPINB4 | -0.0521 |
| ASB1 | -0.404 |
| GNG7 | 0.4 |
| THOC2 | -0.117 |
| LCP2 | 0.739 |
| SEMA4F | -0.503 |
| LINC01565 | -0.38 |
| ACAA2 | -0.16 |
